PubChem BioAssay AID686938 – Drosophila RNAi Screening Center – 2013
In all, the deposit lists about 23,000 reagents; shown is an unselected part of those with a known target gene and a result. In the full data, 75 (0.33%) got an active call. 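Raw plate signals without normalisation; calls rest on plate z-scores that were not deposited; ratio present for only 364 wells.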 Not given: the dose of the treatment.

Purpose: 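Knock-downs reducing store-operated calcium influx in Drosophila cells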 (primary screen)
System: Drosophila S2R+ cells
Reagent: long dsRNA against Drosophila genes, about 0.25 µg dsRNA per well, roughly 10,000 cells
Duration: 5 days of knock-down before the calcium assay
Conditions: thapsigargin (SERCA pump blocker) to empty calcium stores; entry signal taken 4 min after adding it
Measurement: 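Duplicate raw fluo-4 intensities per well from a plate reader, at rest and four minutes after thapsigargin emptied calcium stores; entry-to-rest ratio filled for only some wells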
Scale: calcium entry signal: higher = stronger calcium signal after store depletion; resting calcium signal: higher = higher resting calcium signal
Hit rule: 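Hit if the duplicate-averaged plate z-score for entry over resting signal is under −3; wells with weak total dye signal (Fmax z < −2) or more than 5 off-targets removed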
Calls: active = strongly reduced calcium entry; inactive = no strong reduction

nAChRalpha4 (GeneID 40521) [DRSC11925]: calcium entry signal, replicate 1 (fluorescence units) = 2.14e7; calcium entry signal, replicate 2 (fluorescence units) = 3.50e7; resting calcium signal, replicate 1 (fluorescence units) = 1.20e7; resting calcium signal, replicate 2 (fluorescence units) = 1.59e7; call = inactive
nAChRalpha4 (GeneID 40521) [DRSC11929]: calcium entry signal, replicate 1 (fluorescence units) = 2.34e7; calcium entry signal, replicate 2 (fluorescence units) = 2.75e7; resting calcium signal, replicate 1 (fluorescence units) = 1.34e7; resting calcium signal, replicate 2 (fluorescence units) = 1.34e7; call = inactive
hfp (GeneID 38173) [DRSC08731]: calcium entry signal, replicate 1 (fluorescence units) = 2.12e7; calcium entry signal, replicate 2 (fluorescence units) = 2.72e7; resting calcium signal, replicate 1 (fluorescence units) = 1.44e7; resting calcium signal, replicate 2 (fluorescence units) = 1.57e7; call = inactive
hfp (GeneID 38173) [DRSC08732]: calcium entry signal, replicate 1 (fluorescence units) = 3.05e7; calcium entry signal, replicate 2 (fluorescence units) = 5.16e7; resting calcium signal, replicate 1 (fluorescence units) = 1.58e7; resting calcium signal, replicate 2 (fluorescence units) = 2.18e7; call = inactive
hfp (GeneID 38173) [DRSC22408]: calcium entry signal, replicate 1 (fluorescence units) = 3.10e7; calcium entry signal, replicate 2 (fluorescence units) = 2.94e7; resting calcium signal, replicate 1 (fluorescence units) = 1.69e7; resting calcium signal, replicate 2 (fluorescence units) = 1.22e7; call = inactive
Fak (GeneID 37233) [DRSC07426]: calcium entry signal, replicate 1 (fluorescence units) = 4.99e7; calcium entry signal, replicate 2 (fluorescence units) = 4.33e7; resting calcium signal, replicate 1 (fluorescence units) = 1.90e7; resting calcium signal, replicate 2 (fluorescence units) = 2.00e7; call = inactive
CG7607 (GeneID 39263) [DRSC10889]: calcium entry signal, replicate 1 (fluorescence units) = 2.94e7; calcium entry signal, replicate 2 (fluorescence units) = 5.12e7; resting calcium signal, replicate 1 (fluorescence units) = 1.65e7; resting calcium signal, replicate 2 (fluorescence units) = 2.17e7; call = inactive
CG33259 (GeneID 2768950) [DRSC10854]: calcium entry signal, replicate 1 (fluorescence units) = 3.78e7; calcium entry signal, replicate 2 (fluorescence units) = 5.84e7; resting calcium signal, replicate 1 (fluorescence units) = 1.90e7; resting calcium signal, replicate 2 (fluorescence units) = 2.37e7; call = inactive
Prestin (GeneID 39996) [DRSC10507]: calcium entry signal, replicate 1 (fluorescence units) = 4.14e7; calcium entry signal, replicate 2 (fluorescence units) = 8.06e7; resting calcium signal, replicate 1 (fluorescence units) = 2.18e7; resting calcium signal, replicate 2 (fluorescence units) = 3.41e7; call = inactive
ND-15 (GeneID 33179) [DRSC00311]: calcium entry signal, replicate 1 (fluorescence units) = 3.84e7; resting calcium signal, replicate 1 (fluorescence units) = 1.75e7; call = inactive
Naa30A (GeneID 31079) [DRSC18583]: calcium entry signal, replicate 1 (fluorescence units) = 3.34e7; calcium entry signal, replicate 2 (fluorescence units) = 3.70e7; resting calcium signal, replicate 1 (fluorescence units) = 1.77e7; resting calcium signal, replicate 2 (fluorescence units) = 1.97e7; call = inactive
Naa30A (GeneID 31079) [DRSC23214]: calcium entry signal, replicate 1 (fluorescence units) = 3.97e7; calcium entry signal, replicate 2 (fluorescence units) = 4.01e7; resting calcium signal, replicate 1 (fluorescence units) = 2.05e7; resting calcium signal, replicate 2 (fluorescence units) = 1.93e7; call = inactive

2 entries from above, reformatted.
gene	dsRNA	calcium entry signal, replicate 1 (fluorescence units)	calcium entry signal, replicate 2 (fluorescence units)	resting calcium signal, replicate 1 (fluorescence units)	resting calcium signal, replicate 2 (fluorescence units)	call
nAChRalpha4 (GeneID 40521)	DRSC11929	2.34e7	2.75e7	1.34e7	1.34e7	inactive
hfp (GeneID 38173)	DRSC08731	2.12e7	2.72e7	1.44e7	1.57e7	inactive
